PubChem BioAssay AID1259308 | NCATS, 2017

Assay: 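Genes whose loss raises luciferase production in HEK293 cells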 (primary screen)
System: human HEK293 embryonic kidney cells stably expressing firefly luciferase (HEK-CMV-Luc2-Hygro)
Reagents: single siRNA against human genes, 0.8 pmol siRNA per well
Duration: 72 h
Measured: 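Reporter luminescence and viable-cell signal on separate replicate plates, given as percent of non-targeting control and median/MAD z-scores, plus per-cell luciferase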
Reading the numbers: total luciferase, z-score and total luciferase, % of control: higher = more reporter protein produced; luciferase per cell, z-score: higher = more reporter output per viable cell; viable cells, % of control: higher = more viable cells
Hit rule: 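An siRNA counts as active if its total luciferase robust z-score exceeds 3; genes with two or more such siRNAs out of three were retested with fresh siRNAs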
Calls: active = raised luciferase; inactive = no rise
In all, the deposit lists about 59,000 reagents; below is an unselected part. About 1,510 of all reagents (2.6%) were called active. 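Calls use total luciferase alone and ignore viability, so some active siRNAs may act by altering cell number.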 Reagents against one gene are numbered here.

no.	target gene	reagent	total luciferase, z-score	total luciferase, % of control	luciferase per cell, z-score	viable cells, % of control	Outcome
1	STMN4 (stathmin 4)	1	-1.94	43.2	-1.8	77.6	inactive
2	STMN4 (stathmin 4)	2	-1.29	56.3	-0.999	81.8	inactive
3	STMN4 (stathmin 4)	3	-0.545	71.1	-0.608	93.2	inactive
4	UBL4A (ubiquitin like 4A)	1	-0.000938	81.9	1.6	60	inactive
5	UBL4A (ubiquitin like 4A)	2	0.745	96.7	1.48	73.2	inactive
6	UBL4A (ubiquitin like 4A)	3	0.04	82.7	0.281	85.8	inactive
7	TNKS2 (tankyrase 2)	1	1.74	116	2.17	73.5	inactive
8	TNKS2 (tankyrase 2)	2	0.587	93.6	1.26	75	inactive
9	TNKS2 (tankyrase 2)	3	-1.02	61.7	-0.804	85.2	inactive
10	DEFB125 (defensin beta 125)	1	-0.807	65.8	-0.586	85.8	inactive
11	DEFB125 (defensin beta 125)	2	0.287	87.6	0.579	84	inactive
12	DEFB125 (defensin beta 125)	3	0.0984	83.8	-0.168	97.9	inactive
13	ALKBH7 (alkB homolog 7, RNA demethylase)	1	1.86	119	1.63	86.4	inactive
14	ALKBH7 (alkB homolog 7, RNA demethylase)	2	-1.25	57	-1.53	95.4	inactive
15	ALKBH7 (alkB homolog 7, RNA demethylase)	3	1.01	102	1.5	76.8	inactive

2 successive records already listed, quoted:
no.	target gene	reagent	total luciferase, z-score	total luciferase, % of control	luciferase per cell, z-score	viable cells, % of control	Outcome
6	UBL4A (ubiquitin like 4A)	3	0.04	82.7	0.281	85.8	inactive
7	TNKS2 (tankyrase 2)	1	1.74	116	2.17	73.5	inactive

The listing continues:
no.	target gene	reagent	total luciferase, z-score	total luciferase, % of control	luciferase per cell, z-score	viable cells, % of control	Outcome
16	YTHDF1 (YTH N6-methyladenosine RNA binding protein F1)	1	-0.299	75.9	-0.564	98.4	inactive
17	YTHDF1 (YTH N6-methyladenosine RNA binding protein F1)	2	1.15	105	0.638	98.9	inactive
18	YTHDF1 (YTH N6-methyladenosine RNA binding protein F1)	3	-0.234	77.2	-0.236	91.8	inactive
19	AXIN2 (axin 2)	1	2.36	129	0.743	118	inactive
20	AXIN2 (axin 2)	2	-0.595	70.1	-1.01	102	inactive
21	AXIN2 (axin 2)	3	-0.384	74.3	-0.641	98.2	inactive
22	DOC2B (double C2 domain beta)	1	-0.177	78.4	-0.49	99.6	inactive
23	DOC2B (double C2 domain beta)	2	2.9	140	1.62	102	inactive
24	DOC2B (double C2 domain beta)	3	-0.164	78.6	-0.202	92.7	inactive
